The record followed here is PMC4256660.

Chains of the proteins cited; added tags and fusions are not shown. Lines headed by an entry give the natural chain unless they say otherwise; changes in a name come on top.
UniProt P40763: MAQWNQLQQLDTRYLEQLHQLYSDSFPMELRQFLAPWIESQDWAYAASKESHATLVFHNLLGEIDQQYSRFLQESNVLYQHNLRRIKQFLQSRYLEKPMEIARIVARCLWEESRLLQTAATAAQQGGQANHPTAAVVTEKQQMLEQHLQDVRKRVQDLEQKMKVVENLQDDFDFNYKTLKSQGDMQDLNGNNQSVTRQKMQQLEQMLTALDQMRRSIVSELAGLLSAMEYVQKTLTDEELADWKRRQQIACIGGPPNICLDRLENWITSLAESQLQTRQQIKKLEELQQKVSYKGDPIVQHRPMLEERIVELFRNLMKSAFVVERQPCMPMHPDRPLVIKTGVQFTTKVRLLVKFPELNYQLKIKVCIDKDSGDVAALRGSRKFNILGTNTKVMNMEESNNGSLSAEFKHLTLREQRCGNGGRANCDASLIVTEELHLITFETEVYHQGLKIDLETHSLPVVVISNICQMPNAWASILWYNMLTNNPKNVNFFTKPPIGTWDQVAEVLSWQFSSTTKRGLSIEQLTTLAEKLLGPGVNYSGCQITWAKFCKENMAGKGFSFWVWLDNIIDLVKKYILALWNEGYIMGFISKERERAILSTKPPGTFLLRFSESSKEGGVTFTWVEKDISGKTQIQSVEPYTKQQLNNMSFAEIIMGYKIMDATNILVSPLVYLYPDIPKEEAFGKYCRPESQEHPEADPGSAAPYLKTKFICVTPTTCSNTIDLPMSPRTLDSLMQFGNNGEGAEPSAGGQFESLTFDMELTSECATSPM

No constants are given. Whether binding was seen depends on the method and setting. In cells and extracts the contact can be indirect. Binding can be weak; no strength is given. Tags and fused reporters may be left off the sequences shown.

The target of this assay is T1, INPP5F-V5, co-transfected in 293T cells (UniProt Q9Y2H2).
T1 sequence: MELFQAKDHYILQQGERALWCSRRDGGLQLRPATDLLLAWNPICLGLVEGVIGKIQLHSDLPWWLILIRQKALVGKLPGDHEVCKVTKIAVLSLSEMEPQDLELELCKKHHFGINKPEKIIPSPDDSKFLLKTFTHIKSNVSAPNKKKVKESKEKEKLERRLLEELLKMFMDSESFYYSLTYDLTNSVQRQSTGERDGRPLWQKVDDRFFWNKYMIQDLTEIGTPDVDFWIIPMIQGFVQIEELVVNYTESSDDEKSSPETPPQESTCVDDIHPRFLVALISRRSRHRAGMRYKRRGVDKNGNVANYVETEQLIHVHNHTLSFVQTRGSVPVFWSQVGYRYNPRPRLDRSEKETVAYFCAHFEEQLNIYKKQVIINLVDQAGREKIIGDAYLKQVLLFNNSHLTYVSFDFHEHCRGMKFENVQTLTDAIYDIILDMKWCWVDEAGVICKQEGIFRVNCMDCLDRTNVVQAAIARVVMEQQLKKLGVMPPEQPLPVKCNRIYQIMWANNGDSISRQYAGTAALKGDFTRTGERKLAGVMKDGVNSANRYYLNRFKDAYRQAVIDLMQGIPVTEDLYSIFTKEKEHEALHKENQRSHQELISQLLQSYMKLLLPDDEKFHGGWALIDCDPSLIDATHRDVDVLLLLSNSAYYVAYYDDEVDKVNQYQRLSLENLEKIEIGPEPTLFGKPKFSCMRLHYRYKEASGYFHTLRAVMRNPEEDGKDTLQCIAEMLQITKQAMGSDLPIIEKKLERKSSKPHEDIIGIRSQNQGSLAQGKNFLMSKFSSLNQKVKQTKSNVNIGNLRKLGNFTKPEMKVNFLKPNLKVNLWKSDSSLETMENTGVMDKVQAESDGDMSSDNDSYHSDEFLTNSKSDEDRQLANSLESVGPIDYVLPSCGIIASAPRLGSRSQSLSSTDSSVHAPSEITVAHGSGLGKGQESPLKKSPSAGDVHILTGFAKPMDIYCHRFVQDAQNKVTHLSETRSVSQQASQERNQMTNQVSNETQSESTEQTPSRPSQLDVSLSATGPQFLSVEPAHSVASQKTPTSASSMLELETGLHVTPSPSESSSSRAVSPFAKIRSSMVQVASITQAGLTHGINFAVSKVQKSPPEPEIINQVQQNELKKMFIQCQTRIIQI
The assay is described as follows: co-IP; 293T cells co-transfected with INPP5F-V5 and GFP-tagged STAT3 constructs; IP with anti-V5, immunoblot with anti-GFP; M2 lysis buffer, Dynabeads Protein G. For orientation: A western blot detects proteins with antibodies after separation by electrophoresis.

Regarding “full-length STAT3 (GFP-tagged) of the deletion series (from UniProt P40763)”, the binding result is given as “binds”. On to “N-terminal domain deleted STAT3 (131-End), GFP-tagged (from UniProt P40763) (domain or fragment)”, for which the binding entry is reported as “binds”.
